Measurements reported in PubChem BioAssay AID493246 (Drosophila RNAi Screening Center, 2011).
In all, the deposit lists about 21,000 reagents; shown is a random part of those that have a named target and a result. Over the whole deposit, 429 (2%) were called active. 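Values are raw and not normalised between plates; calls rest on per-plate z-scores that were not deposited.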 A number with no mark means an inactive call. The numbers tell different reagents against one gene apart. Names joined by + are all predicted targets of the reagent. Not stated in the record: the amount of reagent, the time to read-out.

Purpose: 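Identify essential fly genes by loss of cell viability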 (primary screen)
Cells: Drosophila Kc and S2R+ cells
Reagent: long dsRNA against Drosophila genes
Read-out: 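Raw, unnormalised count of remaining cells in each well; per-plate z-scores of cell number underlie the calls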
Scale: Kc cell number and S2R+ cell number: higher = more cells remaining
Active means: 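Counted as a hit if cell number falls by a z-score of at least 3 within its plate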

target	dsRNA no.	Kc cell number, rep 1	Kc cell number, rep 2	S2R+ cell number, rep 1	S2R+ cell number, rep 2
DUBAI + Tmem18	1	1.50e6	1.46e6	9.79e5	1.12e6
ND-B14.7 (NADH dehydrogenase (ubiquinone) B14.7 subunit)	1	1.52e6	1.60e6	9.24e5	2.77e5
Cyp313a2 (Cytochrome P450 313a2)	1	1.55e6	1.56e6	1.19e6	1.27e6
Bap170 (Brahma associated protein 170kD)	1	1.52e6	1.55e6	1.14e6	1.22e6
Glut1 (Glucose transporter 1)	1	1.49e6	1.37e6	9.72e5	1.16e6
Glut1 (Glucose transporter 1)	2	1.39e6	1.38e6	1.17e6	1.13e6
CG6870	1	1.57e6	1.61e6	1.36e6	1.50e6
Ccp84Ae	1	1.44e6	1.38e6	1.06e6	1.17e6
Cht7 (Chitinase 7)	1	9.34e5	1.20e6	1.19e6	8.87e5
thw (thawb)	1	1.59e6	1.73e6	1.29e6	1.47e6
CG13871	1	1.74e6	1.75e6	1.35e6	1.57e6
SNRPG (Small nuclear ribonucleoprotein G)	1	1.48e6	1.56e6	7.69e5	9.08e5
robl37BC	1	1.78e6	1.84e6	1.26e6	2.08e5
CG12470	1	1.58e6	1.56e6	1.12e6	1.20e6
Taf1 (TBP-associated factor 1)	1	1.63e6	1.75e6	1.08e6	1.21e6
CG13138	1	1.39e6	1.47e6	1.17e6	1.33e6
CG9973 (retired record)	1	1.67e6	1.03e6	1.02e6	1.14e6
CG8516	1	1.71e6	1.70e6	1.39e6	1.50e6
SPARC (Secreted protein, acidic, cysteine-rich)	1	1.51e6	1.51e6	1.02e6	1.14e6
CG18480	1	1.61e6	1.62e6	1.21e6	1.31e6
smp-30 (Senescence marker protein-30)	1	1.39e6	1.51e6	1.12e6	1.24e6
RpS17 (Ribosomal protein S17)	1	1.04e6	1.12e6	8.54e5	9.67e5
PDZ-GEF (PDZ domain-containing guanine nucleotide exchange factor)	1	1.68e6	1.57e6	1.23e6	1.29e6
Lfg (Lifeguard)	1	1.71e6	1.79e6	1.41e6	1.63e6
